± gives the standard deviation of the averaged measurements. This is a selection; strong and weak results do not stand in their true shares. Most values lie at the level of the controls, where differences are scatter.
compound: Nc1ncnc2c1ncn2[C@@H]1O[C@H](COP(=O)(O)OP(=O)(O)OP(=O)(O)O)[C@@H](O)[C@H]1O [adenosine triphosphate]; test: NP40-soluble protein abundance relative to vehicle (solubility fold change) (ratio); higher = more soluble protein in presence of ATP; conditions: concentration: 0.5mM
Outline: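 In three independent experiments, Jurkat crude lysate made by Dounce homogenisation was treated for 10 min at room temperature and then 3 min at 37 °C with eight concentrations ranging from 0.1 to 10 mM. It was then solubilised with 0.8% NP40 plus benzonase for 60 min at 4 °C and ultracentrifuged. The supernatant was TMT-labelled for LC-MS/MS, and each value is the fold change against the detergent-processed vehicle for the same replicate, using vsn-normalised intensities.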

By UniProt entry, the sequences of proteins in these tests, tags left out. Where a name states a change or a piece, a line headed by the entry shows the natural chain unless it says otherwise.
UniProt O75475: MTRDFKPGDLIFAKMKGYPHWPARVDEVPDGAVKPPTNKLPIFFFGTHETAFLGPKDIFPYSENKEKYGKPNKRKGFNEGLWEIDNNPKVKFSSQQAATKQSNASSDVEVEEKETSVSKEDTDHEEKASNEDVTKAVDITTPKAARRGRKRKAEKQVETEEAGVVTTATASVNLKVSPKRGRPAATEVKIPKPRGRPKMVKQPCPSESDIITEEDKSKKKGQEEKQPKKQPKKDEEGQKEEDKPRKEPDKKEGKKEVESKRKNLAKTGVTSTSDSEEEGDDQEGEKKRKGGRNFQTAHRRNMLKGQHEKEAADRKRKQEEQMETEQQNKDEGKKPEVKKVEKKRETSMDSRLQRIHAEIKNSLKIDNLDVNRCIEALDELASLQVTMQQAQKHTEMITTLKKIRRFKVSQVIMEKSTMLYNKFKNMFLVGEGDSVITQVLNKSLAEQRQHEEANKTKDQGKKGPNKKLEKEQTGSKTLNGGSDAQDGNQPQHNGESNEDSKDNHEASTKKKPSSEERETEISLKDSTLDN
UniProt O94826, whole entry: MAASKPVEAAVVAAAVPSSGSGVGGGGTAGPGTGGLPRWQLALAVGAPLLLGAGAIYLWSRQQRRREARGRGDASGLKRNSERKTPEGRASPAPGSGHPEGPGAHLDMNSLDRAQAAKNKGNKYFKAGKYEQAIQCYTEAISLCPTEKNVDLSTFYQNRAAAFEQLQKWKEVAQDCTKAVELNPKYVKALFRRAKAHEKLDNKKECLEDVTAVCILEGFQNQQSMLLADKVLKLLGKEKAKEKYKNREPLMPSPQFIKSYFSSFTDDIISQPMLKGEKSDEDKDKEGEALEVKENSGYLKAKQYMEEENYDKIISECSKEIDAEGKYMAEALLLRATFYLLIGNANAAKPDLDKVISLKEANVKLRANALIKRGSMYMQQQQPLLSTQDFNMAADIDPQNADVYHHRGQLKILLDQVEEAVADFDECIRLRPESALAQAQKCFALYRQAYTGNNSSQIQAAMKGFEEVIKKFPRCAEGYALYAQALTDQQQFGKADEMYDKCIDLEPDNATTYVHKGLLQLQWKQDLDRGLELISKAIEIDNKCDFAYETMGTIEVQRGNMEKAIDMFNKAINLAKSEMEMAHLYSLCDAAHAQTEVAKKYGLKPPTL
UniProt O75648: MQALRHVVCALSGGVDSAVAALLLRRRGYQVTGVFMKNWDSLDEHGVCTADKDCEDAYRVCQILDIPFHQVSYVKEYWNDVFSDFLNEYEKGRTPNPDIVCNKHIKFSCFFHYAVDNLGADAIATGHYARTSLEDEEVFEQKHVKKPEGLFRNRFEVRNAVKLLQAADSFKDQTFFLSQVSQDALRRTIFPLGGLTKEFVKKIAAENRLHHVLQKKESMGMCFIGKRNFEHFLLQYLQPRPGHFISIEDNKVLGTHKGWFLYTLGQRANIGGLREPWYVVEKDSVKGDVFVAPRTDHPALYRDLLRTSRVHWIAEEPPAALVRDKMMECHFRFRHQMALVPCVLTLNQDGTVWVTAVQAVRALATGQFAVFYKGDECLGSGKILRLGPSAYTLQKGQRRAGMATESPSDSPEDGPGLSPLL
UniProt O60563, whole entry: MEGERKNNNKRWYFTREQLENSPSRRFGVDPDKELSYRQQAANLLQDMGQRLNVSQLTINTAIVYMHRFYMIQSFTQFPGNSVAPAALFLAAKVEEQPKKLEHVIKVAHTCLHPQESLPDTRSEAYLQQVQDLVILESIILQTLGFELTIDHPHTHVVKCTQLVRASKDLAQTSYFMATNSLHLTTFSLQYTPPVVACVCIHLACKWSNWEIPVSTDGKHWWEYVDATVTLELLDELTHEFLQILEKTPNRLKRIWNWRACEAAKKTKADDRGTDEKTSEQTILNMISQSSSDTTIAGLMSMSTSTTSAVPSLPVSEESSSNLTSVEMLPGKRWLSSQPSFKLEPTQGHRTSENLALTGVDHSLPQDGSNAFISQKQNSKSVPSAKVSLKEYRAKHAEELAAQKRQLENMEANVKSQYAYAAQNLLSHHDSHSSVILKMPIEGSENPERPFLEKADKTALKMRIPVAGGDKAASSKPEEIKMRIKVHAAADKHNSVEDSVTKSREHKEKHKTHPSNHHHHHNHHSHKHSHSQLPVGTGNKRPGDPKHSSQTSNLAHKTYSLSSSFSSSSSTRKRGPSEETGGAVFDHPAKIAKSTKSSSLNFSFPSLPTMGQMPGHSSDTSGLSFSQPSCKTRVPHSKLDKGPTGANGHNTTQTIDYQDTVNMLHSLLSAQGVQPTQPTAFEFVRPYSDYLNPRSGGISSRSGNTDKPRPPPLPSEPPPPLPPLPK
UniProt O75382: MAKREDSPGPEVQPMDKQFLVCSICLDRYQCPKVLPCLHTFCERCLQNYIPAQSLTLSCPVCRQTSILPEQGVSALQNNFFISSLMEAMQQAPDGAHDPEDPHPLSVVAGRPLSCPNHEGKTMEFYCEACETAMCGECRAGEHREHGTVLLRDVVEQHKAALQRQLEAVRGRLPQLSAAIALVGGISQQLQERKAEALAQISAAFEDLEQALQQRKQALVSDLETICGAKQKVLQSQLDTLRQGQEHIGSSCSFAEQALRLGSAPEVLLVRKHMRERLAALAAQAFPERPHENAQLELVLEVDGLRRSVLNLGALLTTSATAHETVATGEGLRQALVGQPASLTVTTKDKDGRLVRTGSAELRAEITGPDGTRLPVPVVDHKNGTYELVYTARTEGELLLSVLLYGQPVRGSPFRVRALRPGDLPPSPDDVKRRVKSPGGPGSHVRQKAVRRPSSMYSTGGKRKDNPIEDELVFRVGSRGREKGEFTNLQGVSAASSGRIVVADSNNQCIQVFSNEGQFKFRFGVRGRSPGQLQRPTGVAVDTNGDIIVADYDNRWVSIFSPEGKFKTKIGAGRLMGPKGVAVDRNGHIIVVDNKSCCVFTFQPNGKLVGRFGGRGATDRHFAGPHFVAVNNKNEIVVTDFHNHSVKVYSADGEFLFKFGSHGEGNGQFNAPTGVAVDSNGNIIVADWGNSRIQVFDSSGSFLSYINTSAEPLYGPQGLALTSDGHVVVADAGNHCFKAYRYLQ
UniProt O60869: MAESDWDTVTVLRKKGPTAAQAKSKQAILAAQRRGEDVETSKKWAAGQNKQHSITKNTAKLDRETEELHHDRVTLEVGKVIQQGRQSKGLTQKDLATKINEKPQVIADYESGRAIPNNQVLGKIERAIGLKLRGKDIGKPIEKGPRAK
UniProt O75146: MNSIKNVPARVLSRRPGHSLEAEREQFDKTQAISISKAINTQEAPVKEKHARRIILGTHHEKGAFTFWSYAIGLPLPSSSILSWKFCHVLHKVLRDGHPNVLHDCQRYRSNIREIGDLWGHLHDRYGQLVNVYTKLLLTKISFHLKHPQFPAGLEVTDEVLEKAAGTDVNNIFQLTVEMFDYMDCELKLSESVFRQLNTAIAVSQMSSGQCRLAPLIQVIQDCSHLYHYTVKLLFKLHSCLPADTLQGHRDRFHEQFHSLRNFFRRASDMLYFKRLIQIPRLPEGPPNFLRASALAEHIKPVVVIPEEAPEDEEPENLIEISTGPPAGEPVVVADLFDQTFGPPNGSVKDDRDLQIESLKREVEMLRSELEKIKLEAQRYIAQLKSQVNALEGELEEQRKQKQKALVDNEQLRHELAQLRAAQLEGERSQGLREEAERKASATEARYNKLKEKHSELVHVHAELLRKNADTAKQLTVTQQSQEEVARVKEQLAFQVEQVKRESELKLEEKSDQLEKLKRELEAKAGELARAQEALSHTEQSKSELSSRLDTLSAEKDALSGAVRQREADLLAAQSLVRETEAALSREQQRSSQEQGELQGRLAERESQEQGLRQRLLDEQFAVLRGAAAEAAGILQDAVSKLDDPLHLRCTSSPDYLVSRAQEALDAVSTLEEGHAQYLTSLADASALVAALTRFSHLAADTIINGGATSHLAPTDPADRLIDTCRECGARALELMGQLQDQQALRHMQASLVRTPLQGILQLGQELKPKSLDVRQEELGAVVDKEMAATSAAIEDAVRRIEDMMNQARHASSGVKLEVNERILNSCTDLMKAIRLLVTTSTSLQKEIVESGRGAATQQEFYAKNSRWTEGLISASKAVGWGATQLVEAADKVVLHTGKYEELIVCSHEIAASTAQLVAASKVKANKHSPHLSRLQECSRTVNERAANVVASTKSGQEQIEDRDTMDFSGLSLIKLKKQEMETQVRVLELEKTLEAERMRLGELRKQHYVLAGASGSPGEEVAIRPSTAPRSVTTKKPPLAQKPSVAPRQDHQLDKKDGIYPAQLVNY
UniProt O75683: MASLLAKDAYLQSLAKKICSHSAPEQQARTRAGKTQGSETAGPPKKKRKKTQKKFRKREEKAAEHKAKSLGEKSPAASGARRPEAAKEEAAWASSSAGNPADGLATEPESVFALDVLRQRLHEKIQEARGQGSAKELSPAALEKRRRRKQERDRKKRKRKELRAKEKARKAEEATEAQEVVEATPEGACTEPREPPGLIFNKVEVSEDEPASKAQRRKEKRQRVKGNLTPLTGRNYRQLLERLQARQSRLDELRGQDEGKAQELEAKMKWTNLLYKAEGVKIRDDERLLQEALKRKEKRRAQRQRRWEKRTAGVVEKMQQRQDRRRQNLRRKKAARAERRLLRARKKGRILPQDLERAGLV
UniProt O95486: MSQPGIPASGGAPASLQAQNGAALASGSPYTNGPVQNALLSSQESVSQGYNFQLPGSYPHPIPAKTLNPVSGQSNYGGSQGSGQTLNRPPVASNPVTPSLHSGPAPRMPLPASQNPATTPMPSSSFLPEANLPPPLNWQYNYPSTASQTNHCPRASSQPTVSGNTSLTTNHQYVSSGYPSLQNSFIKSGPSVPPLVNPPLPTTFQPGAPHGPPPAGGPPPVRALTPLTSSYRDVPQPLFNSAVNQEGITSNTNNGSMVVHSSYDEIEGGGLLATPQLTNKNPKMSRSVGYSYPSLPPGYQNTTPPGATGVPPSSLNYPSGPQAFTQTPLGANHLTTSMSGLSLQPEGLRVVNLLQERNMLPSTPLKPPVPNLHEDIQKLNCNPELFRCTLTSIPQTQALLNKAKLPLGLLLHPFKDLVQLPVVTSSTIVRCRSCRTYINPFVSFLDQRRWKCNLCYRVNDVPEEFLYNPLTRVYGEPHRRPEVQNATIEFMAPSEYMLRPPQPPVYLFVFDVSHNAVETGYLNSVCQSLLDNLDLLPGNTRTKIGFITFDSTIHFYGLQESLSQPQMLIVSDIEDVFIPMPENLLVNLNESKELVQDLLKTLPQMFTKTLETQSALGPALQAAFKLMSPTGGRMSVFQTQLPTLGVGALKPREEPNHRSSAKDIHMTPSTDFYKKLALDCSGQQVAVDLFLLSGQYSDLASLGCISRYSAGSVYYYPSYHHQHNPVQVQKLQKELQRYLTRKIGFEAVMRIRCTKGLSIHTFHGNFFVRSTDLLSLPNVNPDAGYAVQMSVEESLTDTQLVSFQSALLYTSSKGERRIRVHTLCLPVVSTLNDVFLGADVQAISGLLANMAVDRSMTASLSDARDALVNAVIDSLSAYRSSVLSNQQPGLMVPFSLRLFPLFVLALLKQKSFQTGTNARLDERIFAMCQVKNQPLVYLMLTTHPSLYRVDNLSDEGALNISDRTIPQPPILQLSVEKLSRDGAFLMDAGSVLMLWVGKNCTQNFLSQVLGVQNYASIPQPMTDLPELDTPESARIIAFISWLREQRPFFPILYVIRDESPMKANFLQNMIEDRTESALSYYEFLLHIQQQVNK
UniProt O94806: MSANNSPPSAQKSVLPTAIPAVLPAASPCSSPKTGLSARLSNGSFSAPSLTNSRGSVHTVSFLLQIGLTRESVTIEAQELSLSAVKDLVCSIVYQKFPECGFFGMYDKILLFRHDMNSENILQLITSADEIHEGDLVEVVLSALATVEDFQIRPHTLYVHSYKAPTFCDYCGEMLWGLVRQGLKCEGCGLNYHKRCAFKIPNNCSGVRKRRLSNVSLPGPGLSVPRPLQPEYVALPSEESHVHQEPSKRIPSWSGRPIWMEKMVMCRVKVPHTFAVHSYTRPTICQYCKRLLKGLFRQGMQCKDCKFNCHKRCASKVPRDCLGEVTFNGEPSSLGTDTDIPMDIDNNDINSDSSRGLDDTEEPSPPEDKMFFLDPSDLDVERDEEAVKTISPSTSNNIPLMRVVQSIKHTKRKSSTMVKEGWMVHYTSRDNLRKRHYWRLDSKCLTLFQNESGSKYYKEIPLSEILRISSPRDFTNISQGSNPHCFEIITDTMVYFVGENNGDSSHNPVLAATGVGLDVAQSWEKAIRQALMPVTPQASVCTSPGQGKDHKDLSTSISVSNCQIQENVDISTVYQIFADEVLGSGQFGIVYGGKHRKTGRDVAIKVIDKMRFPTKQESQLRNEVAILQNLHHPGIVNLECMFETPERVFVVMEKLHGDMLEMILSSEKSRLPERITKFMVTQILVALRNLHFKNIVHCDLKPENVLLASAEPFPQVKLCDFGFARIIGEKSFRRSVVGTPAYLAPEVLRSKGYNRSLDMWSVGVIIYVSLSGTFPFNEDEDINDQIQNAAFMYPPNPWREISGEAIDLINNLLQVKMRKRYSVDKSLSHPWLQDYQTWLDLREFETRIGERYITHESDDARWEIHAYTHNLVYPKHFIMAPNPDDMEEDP

Row | Target | NP40-soluble protein abundance
1 | SNRNP200 (UniProt O75643) | 1.07 ± 0.029
2 | UniProt O75475 and related entries | 1.1 ± 0.061
3 | UniProt O94826 | 1 ± 0.038
4 | UniProt O75164 | 1.11 ± 0.085
5 | UniProt O94986 and related entries | 0.921 ± 0.1
6 | UniProt O75648 and related entries | 1.05 ± 0.16
7 | RP2 (UniProt O75695) | 1.02 ± 0.064
8 | UniProt O75157 and related entries | 0.9 ± 0.062
9 | PSMG1 (UniProt O95456) | 0.99 ± 0.018
10 | CCNT1 (UniProt O60563) | 1.07 ± 0.025
11 | UniProt O75155 and related entries | 0.96 ± 0.038
12 | UniProt O75382 and related entries | 1.11 ± 0.083
13 | EDF1 (UniProt O60869) | 0.958 ± 0.058
14 | HIP1R (UniProt O75146) | 1.02 ± 0.02
15 | UniProt O75306 and related entries | 1.04 ± 0.029
16 | SURF6 (UniProt O75683) | 0.933 ± 0.045
17 | CD2BP2 (UniProt O95400) | 0.938 ± 0.05
18 | UniProt O94967 and related entries | 1.03 ± 0.011
19 | UniProt O75330 and related entries | 0.941 ± 0.023
20 | SEC24A (UniProt O95486) | 1.03 ± 0.1
21 | UniProt O75323 | 1.03 ± 0.044
22 | PRKD3 (UniProt O94806) | 0.998 ± 0.15
23 | UniProt O75947 | 0.878 ± 0.11

Two entries drawn at random from those above:
Row | Target | NP40-soluble protein abundance
21 | UniProt O75323 | 1.03 ± 0.044
7 | RP2 (UniProt O75695) | 1.02 ± 0.064

— the supplement of paper PMC6411743
